Experimental data: the supplement of paper PMC10849652
Some of the results follow.

Sequences of proteins named here, by UniProt entry; tags and fusion partners are left off. A change or cut given only in a name is not applied to a line headed by its entry.
UniProt O00232: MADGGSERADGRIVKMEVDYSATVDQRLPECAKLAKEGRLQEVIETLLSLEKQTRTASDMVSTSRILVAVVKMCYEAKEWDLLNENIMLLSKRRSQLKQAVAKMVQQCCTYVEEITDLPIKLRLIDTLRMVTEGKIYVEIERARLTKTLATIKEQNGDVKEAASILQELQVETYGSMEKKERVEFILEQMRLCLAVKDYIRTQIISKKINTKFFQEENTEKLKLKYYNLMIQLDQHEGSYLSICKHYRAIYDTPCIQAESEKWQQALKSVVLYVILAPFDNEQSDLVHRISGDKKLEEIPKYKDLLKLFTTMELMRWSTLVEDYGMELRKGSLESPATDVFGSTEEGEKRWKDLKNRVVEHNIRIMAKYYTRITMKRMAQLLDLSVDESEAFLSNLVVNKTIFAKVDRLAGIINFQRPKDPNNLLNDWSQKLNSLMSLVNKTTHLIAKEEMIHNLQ
UniProt O95758: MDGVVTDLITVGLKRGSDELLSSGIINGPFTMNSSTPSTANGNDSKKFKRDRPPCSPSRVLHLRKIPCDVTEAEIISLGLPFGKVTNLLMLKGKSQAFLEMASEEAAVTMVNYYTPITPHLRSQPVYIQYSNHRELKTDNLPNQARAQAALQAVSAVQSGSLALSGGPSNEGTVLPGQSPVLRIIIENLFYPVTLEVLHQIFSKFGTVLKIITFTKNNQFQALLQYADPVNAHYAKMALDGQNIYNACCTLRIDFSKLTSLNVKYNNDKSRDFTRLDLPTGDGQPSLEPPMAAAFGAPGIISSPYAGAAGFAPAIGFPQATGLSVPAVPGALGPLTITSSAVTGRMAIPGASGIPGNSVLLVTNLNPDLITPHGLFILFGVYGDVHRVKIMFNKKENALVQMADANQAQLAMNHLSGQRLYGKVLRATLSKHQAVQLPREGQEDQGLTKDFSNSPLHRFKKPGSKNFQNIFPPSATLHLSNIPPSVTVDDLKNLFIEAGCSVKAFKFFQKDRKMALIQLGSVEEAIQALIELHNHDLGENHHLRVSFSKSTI
UniProt Q9Y520: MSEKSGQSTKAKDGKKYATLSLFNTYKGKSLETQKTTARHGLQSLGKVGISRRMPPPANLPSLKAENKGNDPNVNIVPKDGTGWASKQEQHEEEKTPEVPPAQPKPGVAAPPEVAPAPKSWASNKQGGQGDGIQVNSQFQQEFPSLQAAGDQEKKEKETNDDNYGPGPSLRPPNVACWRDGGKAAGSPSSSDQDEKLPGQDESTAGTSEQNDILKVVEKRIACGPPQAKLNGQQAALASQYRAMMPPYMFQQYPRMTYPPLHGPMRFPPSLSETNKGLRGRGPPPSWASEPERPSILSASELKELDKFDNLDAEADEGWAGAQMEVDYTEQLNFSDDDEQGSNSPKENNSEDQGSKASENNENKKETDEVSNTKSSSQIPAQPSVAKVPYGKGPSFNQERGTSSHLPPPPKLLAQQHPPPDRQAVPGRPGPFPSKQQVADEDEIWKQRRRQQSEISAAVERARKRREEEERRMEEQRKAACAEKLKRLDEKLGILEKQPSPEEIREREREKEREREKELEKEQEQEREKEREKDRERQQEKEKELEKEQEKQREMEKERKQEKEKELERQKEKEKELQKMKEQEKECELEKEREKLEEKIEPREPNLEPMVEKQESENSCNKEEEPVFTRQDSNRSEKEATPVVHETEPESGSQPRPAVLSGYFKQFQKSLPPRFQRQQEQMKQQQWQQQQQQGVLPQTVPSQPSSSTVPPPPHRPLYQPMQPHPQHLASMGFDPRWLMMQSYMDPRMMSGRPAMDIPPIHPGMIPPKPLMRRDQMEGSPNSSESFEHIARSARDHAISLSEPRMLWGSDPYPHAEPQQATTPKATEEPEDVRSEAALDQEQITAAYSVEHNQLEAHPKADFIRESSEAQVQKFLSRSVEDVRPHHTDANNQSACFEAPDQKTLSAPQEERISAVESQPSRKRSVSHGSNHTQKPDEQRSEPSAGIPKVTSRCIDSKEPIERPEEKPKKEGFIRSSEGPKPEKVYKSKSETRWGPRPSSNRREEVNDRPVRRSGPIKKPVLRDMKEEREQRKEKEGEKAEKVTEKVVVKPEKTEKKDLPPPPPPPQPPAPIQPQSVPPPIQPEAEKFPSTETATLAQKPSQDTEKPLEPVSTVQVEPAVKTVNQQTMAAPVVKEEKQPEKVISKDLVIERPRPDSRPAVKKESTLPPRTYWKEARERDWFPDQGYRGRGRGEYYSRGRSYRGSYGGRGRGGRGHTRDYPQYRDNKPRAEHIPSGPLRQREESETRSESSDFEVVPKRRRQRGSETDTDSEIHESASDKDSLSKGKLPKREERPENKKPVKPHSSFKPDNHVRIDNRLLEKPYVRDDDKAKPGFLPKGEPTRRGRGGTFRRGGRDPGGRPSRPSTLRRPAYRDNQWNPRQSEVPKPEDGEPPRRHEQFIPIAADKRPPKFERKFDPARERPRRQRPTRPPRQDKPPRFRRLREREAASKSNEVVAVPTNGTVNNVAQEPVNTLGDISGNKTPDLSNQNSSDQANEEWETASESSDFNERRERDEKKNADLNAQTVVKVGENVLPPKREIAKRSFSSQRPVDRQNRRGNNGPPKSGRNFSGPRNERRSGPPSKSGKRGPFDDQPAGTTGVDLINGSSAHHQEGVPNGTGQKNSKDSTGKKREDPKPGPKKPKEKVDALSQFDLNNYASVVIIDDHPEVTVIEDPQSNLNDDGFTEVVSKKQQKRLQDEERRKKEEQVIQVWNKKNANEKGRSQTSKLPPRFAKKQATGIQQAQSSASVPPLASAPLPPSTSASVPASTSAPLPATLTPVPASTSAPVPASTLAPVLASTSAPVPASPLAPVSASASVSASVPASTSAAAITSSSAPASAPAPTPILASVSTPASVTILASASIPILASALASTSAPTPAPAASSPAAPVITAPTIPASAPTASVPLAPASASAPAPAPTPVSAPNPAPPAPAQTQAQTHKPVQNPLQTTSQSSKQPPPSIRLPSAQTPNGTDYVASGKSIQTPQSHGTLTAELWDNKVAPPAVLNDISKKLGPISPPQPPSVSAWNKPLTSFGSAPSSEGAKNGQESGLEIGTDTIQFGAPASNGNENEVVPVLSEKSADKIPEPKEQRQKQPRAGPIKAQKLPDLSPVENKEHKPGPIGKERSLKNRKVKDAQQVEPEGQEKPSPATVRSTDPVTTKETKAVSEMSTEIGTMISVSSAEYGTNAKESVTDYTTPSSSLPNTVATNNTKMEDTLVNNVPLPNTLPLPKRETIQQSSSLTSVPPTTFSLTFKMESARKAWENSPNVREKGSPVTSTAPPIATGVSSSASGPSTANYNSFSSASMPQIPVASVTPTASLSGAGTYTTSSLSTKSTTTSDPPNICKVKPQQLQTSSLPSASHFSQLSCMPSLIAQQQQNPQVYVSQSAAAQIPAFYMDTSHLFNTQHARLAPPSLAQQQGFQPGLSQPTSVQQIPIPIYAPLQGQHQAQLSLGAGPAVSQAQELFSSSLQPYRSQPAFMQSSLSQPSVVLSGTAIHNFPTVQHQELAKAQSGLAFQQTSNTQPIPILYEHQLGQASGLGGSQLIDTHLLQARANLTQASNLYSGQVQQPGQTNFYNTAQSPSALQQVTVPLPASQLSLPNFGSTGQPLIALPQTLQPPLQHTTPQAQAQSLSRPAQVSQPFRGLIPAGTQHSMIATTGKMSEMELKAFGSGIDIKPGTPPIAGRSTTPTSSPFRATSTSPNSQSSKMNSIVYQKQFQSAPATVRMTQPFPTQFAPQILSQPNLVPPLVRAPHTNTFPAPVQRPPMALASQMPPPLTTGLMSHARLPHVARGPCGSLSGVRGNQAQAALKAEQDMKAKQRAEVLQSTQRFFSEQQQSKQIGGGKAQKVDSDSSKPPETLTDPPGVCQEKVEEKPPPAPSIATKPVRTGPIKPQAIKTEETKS
UniProt P28065: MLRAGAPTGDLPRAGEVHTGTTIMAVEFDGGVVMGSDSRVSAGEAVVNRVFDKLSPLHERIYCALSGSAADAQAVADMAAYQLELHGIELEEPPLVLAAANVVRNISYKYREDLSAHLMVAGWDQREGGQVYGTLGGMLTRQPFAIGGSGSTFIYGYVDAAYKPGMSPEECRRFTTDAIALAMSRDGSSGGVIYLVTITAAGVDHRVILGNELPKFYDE
UniProt Q96QR8: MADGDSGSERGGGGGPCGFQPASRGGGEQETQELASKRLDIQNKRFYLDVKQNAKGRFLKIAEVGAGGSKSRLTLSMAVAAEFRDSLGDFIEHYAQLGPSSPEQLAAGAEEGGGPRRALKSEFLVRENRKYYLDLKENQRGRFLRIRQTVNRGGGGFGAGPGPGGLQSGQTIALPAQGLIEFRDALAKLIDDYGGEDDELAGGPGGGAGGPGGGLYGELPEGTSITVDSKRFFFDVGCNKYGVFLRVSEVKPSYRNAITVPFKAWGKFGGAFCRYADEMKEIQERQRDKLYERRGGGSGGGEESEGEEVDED
UniProt P79522: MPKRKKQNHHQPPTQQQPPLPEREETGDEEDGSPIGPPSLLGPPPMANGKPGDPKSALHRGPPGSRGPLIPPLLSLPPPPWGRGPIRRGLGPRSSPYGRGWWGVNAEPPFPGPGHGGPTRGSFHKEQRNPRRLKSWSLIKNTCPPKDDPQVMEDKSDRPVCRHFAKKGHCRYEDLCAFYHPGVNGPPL
UniProt O75365, whole entry, looked up: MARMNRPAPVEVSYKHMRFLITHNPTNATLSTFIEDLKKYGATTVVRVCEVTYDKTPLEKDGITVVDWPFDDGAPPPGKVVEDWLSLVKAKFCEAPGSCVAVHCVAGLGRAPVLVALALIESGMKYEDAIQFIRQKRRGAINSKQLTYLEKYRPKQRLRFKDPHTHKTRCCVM
UniProt P28062: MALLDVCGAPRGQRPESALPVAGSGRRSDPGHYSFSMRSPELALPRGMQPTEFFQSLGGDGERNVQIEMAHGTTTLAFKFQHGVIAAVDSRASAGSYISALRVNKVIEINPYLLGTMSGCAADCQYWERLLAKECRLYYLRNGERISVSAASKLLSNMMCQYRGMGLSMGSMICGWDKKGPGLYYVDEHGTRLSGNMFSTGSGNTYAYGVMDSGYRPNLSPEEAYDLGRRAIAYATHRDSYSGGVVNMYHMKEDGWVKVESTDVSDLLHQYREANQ
UniProt P07602: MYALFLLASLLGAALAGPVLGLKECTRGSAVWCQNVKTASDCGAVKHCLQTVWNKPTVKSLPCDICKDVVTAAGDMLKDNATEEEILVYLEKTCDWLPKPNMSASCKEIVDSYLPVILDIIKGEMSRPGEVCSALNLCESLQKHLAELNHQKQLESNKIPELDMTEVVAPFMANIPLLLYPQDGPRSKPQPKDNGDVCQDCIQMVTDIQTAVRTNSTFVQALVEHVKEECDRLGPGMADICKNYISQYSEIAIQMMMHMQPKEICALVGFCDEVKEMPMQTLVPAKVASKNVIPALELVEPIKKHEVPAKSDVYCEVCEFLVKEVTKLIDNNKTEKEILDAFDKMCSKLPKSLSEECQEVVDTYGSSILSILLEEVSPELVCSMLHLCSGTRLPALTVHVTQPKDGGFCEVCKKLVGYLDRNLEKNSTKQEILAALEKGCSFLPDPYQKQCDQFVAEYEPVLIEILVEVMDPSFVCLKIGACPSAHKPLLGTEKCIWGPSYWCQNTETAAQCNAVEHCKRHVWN
UniProt Q86YD1: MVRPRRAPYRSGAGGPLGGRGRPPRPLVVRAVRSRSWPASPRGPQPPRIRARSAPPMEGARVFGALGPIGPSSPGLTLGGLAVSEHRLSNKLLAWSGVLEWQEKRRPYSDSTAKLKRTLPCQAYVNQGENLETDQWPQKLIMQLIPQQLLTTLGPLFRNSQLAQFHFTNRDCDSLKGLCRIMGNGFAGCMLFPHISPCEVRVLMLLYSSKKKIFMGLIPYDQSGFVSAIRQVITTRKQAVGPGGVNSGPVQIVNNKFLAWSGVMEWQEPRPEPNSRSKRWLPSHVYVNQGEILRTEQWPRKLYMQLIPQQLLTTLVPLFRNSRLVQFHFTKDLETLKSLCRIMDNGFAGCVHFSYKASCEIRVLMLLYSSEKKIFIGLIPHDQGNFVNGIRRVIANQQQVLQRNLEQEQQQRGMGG
UniProt Q16378: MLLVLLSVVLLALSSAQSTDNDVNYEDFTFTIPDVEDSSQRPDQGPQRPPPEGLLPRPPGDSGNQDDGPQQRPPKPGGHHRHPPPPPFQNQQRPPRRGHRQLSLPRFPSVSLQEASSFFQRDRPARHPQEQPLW
UniProt Q8WV60: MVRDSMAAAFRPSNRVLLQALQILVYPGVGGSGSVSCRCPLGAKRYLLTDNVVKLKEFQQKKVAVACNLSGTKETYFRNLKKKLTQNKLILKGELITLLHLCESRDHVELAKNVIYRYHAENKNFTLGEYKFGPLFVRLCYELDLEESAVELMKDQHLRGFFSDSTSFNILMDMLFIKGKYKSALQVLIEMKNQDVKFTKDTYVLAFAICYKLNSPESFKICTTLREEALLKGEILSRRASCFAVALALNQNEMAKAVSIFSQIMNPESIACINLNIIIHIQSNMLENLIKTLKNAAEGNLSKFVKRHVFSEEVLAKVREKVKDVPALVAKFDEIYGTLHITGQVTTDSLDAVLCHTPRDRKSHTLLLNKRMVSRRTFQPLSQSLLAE

Legend:
Assay in all cases: log2 fold change, soluble protein after heating vs DMSO (PISA); higher = thermal stabilisation; K562 lysate, 10 uM; active = over 0.2 and 3.5 SD of the protein, either way, in both replicates (recomputed)
[1] = compound: C#Cc1cccc(Nc2ncnc3cc(OCCOC)c(OCCOC)cc23)c1 [erlotinib]
Procedure, shortened: (§1)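 To prepare the extract, K562 pellets were dounce-homogenised in PBS pH 7.4 with 1 mM MgCl2, giving crude material at 1 mg/mL protein. This was treated with 10 μM compound for 30 min, then heated in aliquots for 3 min over 48°C-58°C before pooling and addition of NP-40 to 0.5% at 4°C. Centrifugation at 21,000xg for 90 min left soluble protein in the supernatant, which TMTpro 16plex LC-MS/MS quantified with equalised channel sums. Results are log-two fold changes in thermal stability compared with solvent controls, from duplicates.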

[2] = compound: C/C(=N\NC(=O)C1=CC(=CC=C1)S(=O)(=O)N2CCOCC2)/C3=C(C=CC(=C3)Cl)O
Procedure, shortened: as §1

[3] = compound: C1=CC(=CC=C1C2=NC3=C(N2)C=C(C=C3)C(=O)N)OC4=CC=C(C=C4)Cl
Procedure, shortened: as §1

[4] = compound: C1=CC2=C(C=CC(=C2)/C=C\3/C(=O)NC(=NCC4=CC=CS4)S3)N=C1
Procedure, shortened: as §1

[5] = compound: C1=CC2=NC=CN=C2C=C1/C=C/3\C(=O)NC(=O)S3
Procedure, shortened: as §1

[6] = compound: C1=CC=C(C=C1)C2=NC(=C(N2)C3=CC=NC=C3)C4=CC(=C(C=C4)Cl)O
Procedure, shortened: as §1

[7] = compound: C1=CC=C2C(=C1)C3=NNC4=CC=CC(=C43)C2=O
Procedure, shortened: as §1

[8] = compound: C1CCN(C1)C(=O)NC2=CC=CC(=C2)NC3=NC=C(C(=N3)NCCC4=CN=CN4)Br
Procedure, shortened: as §1

[9] = compound: C1CN(CCC1(CC2=CC=C(C=C2)Cl)N)C3=NC=NC4=C3C=CN4
Procedure, shortened: as §1

[10] = compound: C1COCCN1CCN2C3=CC=CC=C3N=C2NC(=O)C4=CC(=CC=C4)[N+](=O)[O-] [IRAK-1-4 Inhibitor I]
Procedure, shortened: as §1

Measured: log2 fold change

PTER (UniProt Q96BW5)
inactive: [1] -0.031 | [2] -0.026 | [3] 0.038 | [4] -0.01 | [5] -0.009 | [6] 0.013 | [7] 0.02 | [8] -0.021 | [9] 0.041 | [10] 0.021

PSMD12 (UniProt O00232)
inactive: [1] 0 | [2] 0.02 | [3] -0.018 | [4] -0.011 | [5] -0.014 | [6] 0.002 | [7] 0.012 | [8] 0.001 | [9] -0.005 | [10] -0.01

PSMD4 (UniProt Q5VWC4)
inactive: [1] -0.07 | [2] -0.105 | [3] -0.179 | [4] 0.098 | [5] -0.024 | [6] -0.019 | [7] 0.031 | [10] -0.005

PTBP3 isoform 4 (UniProt O95758)
inactive: [1] 0.027 | [2] 0.044 | [3] -0.01 | [4] -0.02 | [5] 0.051 | [6] -0.001 | [7] 0.03 | [8] -0.025 | [9] 0.016 | [10] 0.015

PRRC2C isoform 7 (UniProt Q9Y520)
inactive: [1] -0.021 | [2] -0.034 | [3] 0.043 | [4] 0.005 | [5] -0.02 | [6] -0.034 | [7] -0.011 | [8] 0.005 | [9] -0.002 | [10] 0.028

PSMB9 (UniProt P28065)
inactive: [1] 0.02 | [2] -0.112 | [3] 0.008 | [4] -0.062 | [5] -0.08 | [6] -0.061 | [7] 0.033 | [8] -0.084 | [9] 0.084 | [10] -0.048

PURB (UniProt Q96QR8)
inactive: [1] -0.016 | [2] -0.028 | [3] 0.035 | [4] 0.004 | [5] -0.004 | [6] 0.011 | [7] 0.051 | [8] 0.048 | [9] -0.114 | [10] 0.026

PSMB2, A0A087WVV1
inactive: [1] 0.036 | [2] 0.467 | [3] -0.03 | [4] -0.1 | [5] 0.006 | [7] -0.136 | [8] -0.019 | [9] 0.125

PSMD5 (UniProt Q16401)
inactive: [1] 0.013 | [2] -0.009 | [3] -0.018 | [4] -0.003 | [5] 0.023 | [6] -0.001 | [7] -0.008 | [8] 0.005 | [9] 0.007 | [10] 0.018

PTPRS isoform 3 (UniProt Q13332)
inactive: [1] -0.011 | [2] 0.029 | [3] 0.035 | [4] -0.153 | [5] -0.024 | [6] 0.006 | [7] -0.08 | [8] -0.058 | [9] 0.033 | [10] 0.064

Quoted from the entries so far (6 entries):
PSMD12 (UniProt O00232)
inactive: [1] 0 | [2] 0.02 | [3] -0.018 | [4] -0.011 | [5] -0.014 | [6] 0.002 | [7] 0.012 | [8] 0.001 | [9] -0.005 | [10] -0.01

PSMD4 (UniProt Q5VWC4)
inactive: [1] -0.07 | [2] -0.105 | [3] -0.179 | [4] 0.098 | [5] -0.024 | [6] -0.019 | [7] 0.031 | [10] -0.005

PTBP3 isoform 4 (UniProt O95758)
inactive: [1] 0.027 | [2] 0.044 | [3] -0.01 | [4] -0.02 | [5] 0.051 | [6] -0.001 | [7] 0.03 | [8] -0.025 | [9] 0.016 | [10] 0.015

PRRC2C isoform 7 (UniProt Q9Y520)
inactive: [1] -0.021 | [2] -0.034 | [3] 0.043 | [4] 0.005 | [5] -0.02 | [6] -0.034 | [7] -0.011 | [8] 0.005 | [9] -0.002 | [10] 0.028

PSMB9 (UniProt P28065)
inactive: [1] 0.02 | [2] -0.112 | [3] 0.008 | [4] -0.062 | [5] -0.08 | [6] -0.061 | [7] 0.033 | [8] -0.084 | [9] 0.084 | [10] -0.048

PURB (UniProt Q96QR8)
inactive: [1] -0.016 | [2] -0.028 | [3] 0.035 | [4] 0.004 | [5] -0.004 | [6] 0.011 | [7] 0.051 | [8] 0.048 | [9] -0.114 | [10] 0.026

Following part

PSMC3 (UniProt P17980)
inactive: [1] 0.019 | [2] 0.008 | [3] 0.002 | [4] -0.015 | [5] -0.031 | [6] 0.007 | [7] -0.027 | [8] -0.001 | [9] 0.027 | [10] 0.003

PSMD1 (UniProt Q99460)
inactive: [1] 0 | [2] -0.025 | [3] 0.024 | [4] -0.009 | [5] -0.023 | [6] -0.003 | [7] -0.021 | [8] 0.012 | [9] 0.007 | [10] -0.014

PTK2 isoform 2 (UniProt Q05397)
inactive: [1] 0.002 | [3] 0.006 | [5] -0.114 | [8] 0.193 | [9] -0.016

PSIP1 (UniProt V9GYT7)
inactive: [1] -0.044 | [3] 0.103 | [5] -0.044 | [6] 0.002 | [10] 0.061

PRR3 (UniProt P79522)
inactive: [2] 0.115 | [4] -0.004 | [7] -0.088

PRXL2A (UniProt Q9BRX8)
inactive: [1] 0.05 | [3] 0.077 | [5] 0.087 | [6] -0.033 | [10] 0.145

PTP4A3 (UniProt O75365)
inactive: [1] -0.014 | [2] 0.069 | [3] -0.165 | [4] 0.008 | [7] 0.116 | [8] -0.074 | [9] 0.172

PTPRB isoform 3 (UniProt P23467)
inactive: [5] -0.106

PSMF1 (UniProt Q5QPM7)
inactive: [2] 0.067 | [4] 0.026 | [7] -0.278 | [8] 0.046 | [9] 0.026

PRSS50 (UniProt Q9UI38)
inactive: [5] 0.023 | [8] 0.059 | [9] -0.037

PRRG1 (UniProt O14668)
inactive: [6] -0.006 | [10] 0.06

PRRC2B (UniProt H0Y412)
inactive: [1] 0.006 | [3] 0.256 | [6] -0.227 | [10] 0.003

PSMA3 (UniProt H0YJ03)
inactive: [1] 0.012 | [2] -0.067 | [3] -0.038 | [4] 0.069 | [6] -0.006 | [7] 0.111 | [8] -0.075 | [9] 0.067 | [10] 0.09

PSEN2 (UniProt P49810)
inactive: [5] 0.014 | [6] 0.061 | [8] -0.049 | [9] 0.058 | [10] -0.026

PSMB8 (UniProt P28062)
inactive: [1] 0.05 | [3] 0.036 | [5] 0.037 | [6] -0.028 | [8] -0.016 | [9] 0.04 | [10] -0.042

PTPA (UniProt A6PVN8)
inactive: [8] -0.161 | [9] -0.016

PRR12 (UniProt Q9ULL5)
inactive: [5] -0.053 | [6] 0.134 | [10] 0.203

PSMB10 (UniProt P40306)
inactive: [2] 0.007 | [4] -0.013 | [5] -0.058 | [6] 0.012 | [7] 0.08 | [8] -0.032 | [9] -0.008 | [10] 0.004

PSAP isoform 2 (UniProt P07602)
inactive: [1] -0.04 | [3] -0.217

PTOV1 (UniProt Q86YD1)
inactive: [2] 0.479 | [4] -0.083 | [7] -0.139

PRR4 (UniProt Q16378)
inactive: [1] -0.097 | [2] 1.59 | [3] -0.193 | [4] -0.167 | [6] -0.11 | [7] -0.484 | [8] -0.127 | [9] 1.09 | [10] -0.048

PTPN14 (UniProt Q15678)
inactive: [8] 0.089 | [9] 0.223

PTCD2 (UniProt Q8WV60)
inactive: [1] 0.149 | [2] -0.316 | [3] -0.055 | [4] 0.184 | [6] -0.065 | [7] -0.032 | [8] 0.124 | [9] 0.044 | [10] 0.052
